The list shows a part of the results.
Tests used:
Test in all cases: log2 fold change, soluble protein after heating vs DMSO (PISA); higher = thermal stabilisation; K562 cells, 10 uM, 30 min; active = over 0.2 and 3.5 SD of the protein, either way, in both replicates (recomputed)
[1] = compound: C1=CC=C(C=C1)[C@H](COC2=CC3=C(C=C2)NC(=O)N3)NC(=O)C4=CC=CN(C4=O)CC5=CC(=C(C=C5)F)F
Outline: (§1)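 K562 cells at 2×10^6 cells/mL were treated with 10 μM compound for 30 min. Aliquots were heated for 3 min across 48°C-58°C, pooled, and extracted in PBS with 0.5% NP-40 at 4°C; soluble protein was the supernatant after 21,000xg for 90 min. Soluble protein was quantified by TMTpro 16plex LC-MS/MS with channel sums equalised, and reported as log2 fold change in thermal stability against DMSO controls, with values from duplicates.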

Amino acid sequences for entries named in this document (tags omitted). A change or cut given only in a name is not applied to a line headed by its entry.
UniProt P28070, whole entry, looked up: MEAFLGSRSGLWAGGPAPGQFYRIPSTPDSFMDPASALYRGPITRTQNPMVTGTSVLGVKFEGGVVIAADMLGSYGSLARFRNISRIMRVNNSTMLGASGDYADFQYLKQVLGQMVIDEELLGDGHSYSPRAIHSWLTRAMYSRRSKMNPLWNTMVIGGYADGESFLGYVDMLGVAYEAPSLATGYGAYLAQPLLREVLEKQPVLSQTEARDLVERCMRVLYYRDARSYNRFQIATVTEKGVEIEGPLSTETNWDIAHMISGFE
UniProt P60900, whole entry, looked up: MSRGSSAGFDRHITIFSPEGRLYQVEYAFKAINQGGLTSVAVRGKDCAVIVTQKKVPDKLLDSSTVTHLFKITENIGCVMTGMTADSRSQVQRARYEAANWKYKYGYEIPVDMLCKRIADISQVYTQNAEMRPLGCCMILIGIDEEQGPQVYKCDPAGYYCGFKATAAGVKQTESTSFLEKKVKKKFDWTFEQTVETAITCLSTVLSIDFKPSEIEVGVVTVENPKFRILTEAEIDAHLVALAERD
UniProt O00487, whole entry, looked up: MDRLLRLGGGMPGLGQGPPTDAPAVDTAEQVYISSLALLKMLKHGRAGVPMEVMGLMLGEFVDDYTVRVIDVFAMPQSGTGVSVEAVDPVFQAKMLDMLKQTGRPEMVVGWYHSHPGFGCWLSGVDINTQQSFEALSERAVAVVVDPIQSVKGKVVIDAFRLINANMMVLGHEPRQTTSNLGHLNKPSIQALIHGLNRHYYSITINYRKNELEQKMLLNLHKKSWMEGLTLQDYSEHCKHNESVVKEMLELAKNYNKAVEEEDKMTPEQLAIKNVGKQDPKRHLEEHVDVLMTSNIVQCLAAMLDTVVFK
UniProt P49023, whole entry, looked up: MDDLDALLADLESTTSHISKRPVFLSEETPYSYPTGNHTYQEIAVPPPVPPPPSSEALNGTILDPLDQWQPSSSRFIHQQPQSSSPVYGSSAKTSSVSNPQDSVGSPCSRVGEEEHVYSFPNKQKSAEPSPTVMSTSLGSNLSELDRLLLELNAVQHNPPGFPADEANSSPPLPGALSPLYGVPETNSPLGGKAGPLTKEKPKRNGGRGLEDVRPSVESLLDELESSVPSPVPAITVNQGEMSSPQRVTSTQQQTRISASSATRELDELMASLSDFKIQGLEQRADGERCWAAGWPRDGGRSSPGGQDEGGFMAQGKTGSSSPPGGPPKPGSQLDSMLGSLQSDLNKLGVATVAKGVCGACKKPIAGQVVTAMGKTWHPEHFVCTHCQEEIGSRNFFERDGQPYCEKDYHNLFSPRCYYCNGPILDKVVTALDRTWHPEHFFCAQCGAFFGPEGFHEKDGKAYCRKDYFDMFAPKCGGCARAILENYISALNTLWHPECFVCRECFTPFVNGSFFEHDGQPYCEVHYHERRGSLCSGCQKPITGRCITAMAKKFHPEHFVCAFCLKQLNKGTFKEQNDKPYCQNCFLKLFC
UniProt Q96C36: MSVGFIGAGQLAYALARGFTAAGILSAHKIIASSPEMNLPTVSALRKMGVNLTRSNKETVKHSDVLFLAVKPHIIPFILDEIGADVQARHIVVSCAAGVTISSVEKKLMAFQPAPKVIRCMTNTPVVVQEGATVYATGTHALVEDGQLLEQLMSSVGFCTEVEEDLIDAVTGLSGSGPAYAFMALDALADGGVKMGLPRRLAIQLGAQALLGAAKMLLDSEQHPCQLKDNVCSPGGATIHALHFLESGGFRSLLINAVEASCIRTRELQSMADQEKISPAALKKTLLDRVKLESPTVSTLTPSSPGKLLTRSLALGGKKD
UniProt P55036: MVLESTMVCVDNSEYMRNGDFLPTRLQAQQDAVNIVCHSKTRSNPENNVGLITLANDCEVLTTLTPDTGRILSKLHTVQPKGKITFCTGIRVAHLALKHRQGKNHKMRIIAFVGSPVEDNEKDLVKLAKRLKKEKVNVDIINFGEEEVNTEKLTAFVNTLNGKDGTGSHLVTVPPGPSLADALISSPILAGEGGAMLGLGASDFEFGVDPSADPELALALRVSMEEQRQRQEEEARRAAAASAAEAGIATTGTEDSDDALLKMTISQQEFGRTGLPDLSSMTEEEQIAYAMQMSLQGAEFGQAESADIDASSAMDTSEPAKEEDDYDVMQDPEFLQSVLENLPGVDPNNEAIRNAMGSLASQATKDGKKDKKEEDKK
UniProt Q8WUY3: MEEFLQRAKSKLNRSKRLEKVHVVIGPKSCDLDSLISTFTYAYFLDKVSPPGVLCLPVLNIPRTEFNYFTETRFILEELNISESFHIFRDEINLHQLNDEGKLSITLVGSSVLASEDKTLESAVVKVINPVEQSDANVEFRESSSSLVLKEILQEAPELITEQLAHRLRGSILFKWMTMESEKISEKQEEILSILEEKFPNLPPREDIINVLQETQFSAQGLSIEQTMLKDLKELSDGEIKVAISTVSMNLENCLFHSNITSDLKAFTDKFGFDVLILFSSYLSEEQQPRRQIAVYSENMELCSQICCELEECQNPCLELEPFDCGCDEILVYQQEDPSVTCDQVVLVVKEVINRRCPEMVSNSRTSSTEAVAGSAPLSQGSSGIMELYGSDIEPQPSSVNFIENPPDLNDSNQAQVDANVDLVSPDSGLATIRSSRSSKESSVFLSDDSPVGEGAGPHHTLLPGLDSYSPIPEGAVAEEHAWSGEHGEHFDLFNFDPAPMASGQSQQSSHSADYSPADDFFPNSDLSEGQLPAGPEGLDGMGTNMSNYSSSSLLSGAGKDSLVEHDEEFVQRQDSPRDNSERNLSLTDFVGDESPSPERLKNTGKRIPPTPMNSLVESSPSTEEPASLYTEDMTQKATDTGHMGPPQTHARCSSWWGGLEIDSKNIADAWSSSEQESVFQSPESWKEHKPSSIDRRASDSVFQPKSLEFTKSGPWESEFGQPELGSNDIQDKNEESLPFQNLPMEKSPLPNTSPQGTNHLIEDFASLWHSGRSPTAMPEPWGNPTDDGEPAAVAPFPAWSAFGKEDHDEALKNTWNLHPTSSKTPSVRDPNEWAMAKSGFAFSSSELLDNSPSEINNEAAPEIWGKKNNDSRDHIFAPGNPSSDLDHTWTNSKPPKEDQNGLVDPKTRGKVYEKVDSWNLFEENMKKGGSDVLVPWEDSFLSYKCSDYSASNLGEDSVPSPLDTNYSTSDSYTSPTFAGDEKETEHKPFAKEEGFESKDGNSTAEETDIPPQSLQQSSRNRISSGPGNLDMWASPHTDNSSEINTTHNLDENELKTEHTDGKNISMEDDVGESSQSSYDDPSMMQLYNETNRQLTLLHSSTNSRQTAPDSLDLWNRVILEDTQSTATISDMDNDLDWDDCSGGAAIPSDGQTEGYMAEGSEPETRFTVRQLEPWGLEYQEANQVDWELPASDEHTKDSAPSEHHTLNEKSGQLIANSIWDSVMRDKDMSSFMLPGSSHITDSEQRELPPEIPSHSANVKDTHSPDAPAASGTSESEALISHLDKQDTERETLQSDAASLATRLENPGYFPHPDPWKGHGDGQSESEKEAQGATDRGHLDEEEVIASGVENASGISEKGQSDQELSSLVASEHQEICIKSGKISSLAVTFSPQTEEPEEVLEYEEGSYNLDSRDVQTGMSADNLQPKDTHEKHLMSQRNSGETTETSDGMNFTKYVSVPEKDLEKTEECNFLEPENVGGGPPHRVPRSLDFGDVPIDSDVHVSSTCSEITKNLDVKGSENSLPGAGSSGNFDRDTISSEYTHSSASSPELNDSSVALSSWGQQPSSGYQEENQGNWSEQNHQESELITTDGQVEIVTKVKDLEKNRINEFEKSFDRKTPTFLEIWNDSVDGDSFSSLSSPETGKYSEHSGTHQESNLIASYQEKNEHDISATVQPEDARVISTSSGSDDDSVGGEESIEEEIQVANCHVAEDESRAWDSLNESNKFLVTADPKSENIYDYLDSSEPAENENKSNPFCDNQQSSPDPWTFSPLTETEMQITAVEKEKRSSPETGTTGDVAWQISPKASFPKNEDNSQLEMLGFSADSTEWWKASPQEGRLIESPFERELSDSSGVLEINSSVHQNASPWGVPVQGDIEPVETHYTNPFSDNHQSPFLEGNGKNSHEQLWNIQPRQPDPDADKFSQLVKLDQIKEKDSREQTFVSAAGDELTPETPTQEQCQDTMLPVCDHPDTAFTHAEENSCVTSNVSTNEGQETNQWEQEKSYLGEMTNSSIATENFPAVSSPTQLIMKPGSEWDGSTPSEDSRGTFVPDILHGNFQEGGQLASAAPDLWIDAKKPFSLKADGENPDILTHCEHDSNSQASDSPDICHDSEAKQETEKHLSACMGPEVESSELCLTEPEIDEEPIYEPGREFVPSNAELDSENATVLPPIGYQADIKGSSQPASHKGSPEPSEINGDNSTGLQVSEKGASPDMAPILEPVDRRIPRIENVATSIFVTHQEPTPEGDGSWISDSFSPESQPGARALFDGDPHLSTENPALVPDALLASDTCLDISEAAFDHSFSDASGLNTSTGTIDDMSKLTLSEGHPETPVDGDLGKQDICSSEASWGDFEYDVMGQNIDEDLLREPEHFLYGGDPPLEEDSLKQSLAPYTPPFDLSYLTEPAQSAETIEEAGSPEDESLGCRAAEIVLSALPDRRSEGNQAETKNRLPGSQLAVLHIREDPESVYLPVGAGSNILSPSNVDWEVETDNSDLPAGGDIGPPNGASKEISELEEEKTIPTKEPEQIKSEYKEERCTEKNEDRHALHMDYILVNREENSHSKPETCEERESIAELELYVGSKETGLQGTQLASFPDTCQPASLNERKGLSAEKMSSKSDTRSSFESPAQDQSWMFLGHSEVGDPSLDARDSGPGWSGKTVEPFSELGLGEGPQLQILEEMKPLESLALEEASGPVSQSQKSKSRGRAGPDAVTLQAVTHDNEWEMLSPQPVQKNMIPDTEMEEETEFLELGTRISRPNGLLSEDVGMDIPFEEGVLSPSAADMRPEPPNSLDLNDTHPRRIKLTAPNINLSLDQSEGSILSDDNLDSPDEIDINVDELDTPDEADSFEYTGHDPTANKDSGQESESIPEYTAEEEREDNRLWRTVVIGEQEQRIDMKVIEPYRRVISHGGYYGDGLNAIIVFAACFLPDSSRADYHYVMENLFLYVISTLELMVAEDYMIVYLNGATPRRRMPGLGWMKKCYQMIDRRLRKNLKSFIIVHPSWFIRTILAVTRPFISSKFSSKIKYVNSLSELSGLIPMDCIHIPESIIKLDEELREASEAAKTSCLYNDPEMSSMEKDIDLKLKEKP
UniProt Q9NYI0: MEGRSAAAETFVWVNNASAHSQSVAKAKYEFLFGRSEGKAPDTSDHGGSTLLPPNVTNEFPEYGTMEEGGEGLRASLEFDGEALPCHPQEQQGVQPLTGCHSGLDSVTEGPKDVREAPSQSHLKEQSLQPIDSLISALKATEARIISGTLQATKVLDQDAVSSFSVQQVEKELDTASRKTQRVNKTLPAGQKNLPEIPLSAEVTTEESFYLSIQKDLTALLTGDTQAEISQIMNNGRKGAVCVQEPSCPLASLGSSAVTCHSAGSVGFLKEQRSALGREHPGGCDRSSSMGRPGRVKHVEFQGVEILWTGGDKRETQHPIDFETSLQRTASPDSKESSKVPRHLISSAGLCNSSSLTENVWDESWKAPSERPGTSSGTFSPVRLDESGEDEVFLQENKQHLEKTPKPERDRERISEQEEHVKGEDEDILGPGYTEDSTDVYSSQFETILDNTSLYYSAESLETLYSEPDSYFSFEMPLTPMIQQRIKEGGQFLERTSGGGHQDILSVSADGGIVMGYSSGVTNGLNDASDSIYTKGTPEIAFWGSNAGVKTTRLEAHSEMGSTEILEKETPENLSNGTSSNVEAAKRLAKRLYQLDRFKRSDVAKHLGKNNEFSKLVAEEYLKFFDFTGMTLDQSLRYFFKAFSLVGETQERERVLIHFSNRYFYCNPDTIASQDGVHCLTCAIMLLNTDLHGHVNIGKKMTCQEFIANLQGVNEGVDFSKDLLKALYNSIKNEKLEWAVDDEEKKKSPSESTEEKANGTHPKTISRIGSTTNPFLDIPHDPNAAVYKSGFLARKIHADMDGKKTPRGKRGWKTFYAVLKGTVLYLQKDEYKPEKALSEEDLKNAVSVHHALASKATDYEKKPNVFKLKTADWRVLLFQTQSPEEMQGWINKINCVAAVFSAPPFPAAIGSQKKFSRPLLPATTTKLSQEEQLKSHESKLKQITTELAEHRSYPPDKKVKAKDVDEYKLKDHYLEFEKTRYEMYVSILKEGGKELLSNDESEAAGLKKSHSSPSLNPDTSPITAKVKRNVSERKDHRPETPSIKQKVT
UniProt Q8N0Z8: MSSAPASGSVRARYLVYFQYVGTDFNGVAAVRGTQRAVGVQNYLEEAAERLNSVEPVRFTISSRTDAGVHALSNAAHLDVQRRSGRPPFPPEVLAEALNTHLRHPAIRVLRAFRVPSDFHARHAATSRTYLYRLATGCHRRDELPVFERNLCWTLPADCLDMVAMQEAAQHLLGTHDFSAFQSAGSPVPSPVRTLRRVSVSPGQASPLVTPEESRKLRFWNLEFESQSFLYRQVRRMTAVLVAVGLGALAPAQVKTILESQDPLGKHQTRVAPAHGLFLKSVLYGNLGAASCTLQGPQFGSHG

[2] = compound: CC1=C(SC2=C1C(=N[C@H](C3=NN=C(N32)C)CC(=O)N)C4=CC=C(C=C4)Cl)C
Outline: as §1

[3] = compound: CC1=C2C(=CC=C1)N=C(N(C2=O)C3=CC=CC=C3C)CN4C=NC5=C(N=CN=C54)N
Outline: as §1

[4] = compound: Cc1sc2c(c1C)C(c1ccc(Cl)cc1)=N[C@@H](CC(=O)OC(C)(C)C)c1nnc(C)n1-2
Outline: as §1

[5] = compound: c1ccc([C@@H]2C[C@H]2NC2CCNCC2)cc1
Outline: as §1

Measured: log2 fold change

PSMB4 (UniProt P28070)
inactive: [1] 0.024 | [2] -0.037 | [3] -0.038 | [4] -0.009 | [5] 0.03

PSME3 isoform 2 (UniProt P61289)
inactive: [1] 0.019 | [2] 0 | [3] -0.04 | [4] 0.017 | [5] 0.045

PVR (UniProt P15151)
inactive: [1] 0.009 | [2] 0.102 | [3] 0.007 | [4] -0.008 | [5] -0.004

PSMA6 (UniProt P60900)
inactive: [1] 0.045 | [2] -0.069 | [3] -0.028 | [4] -0.011 | [5] 0.029

PSMD14 (UniProt O00487)
inactive: [1] -0.022 | [2] -0.062 | [3] -0.044 | [4] -0.021 | [5] 0.012

PSMD2 (UniProt Q13200)
inactive: [1] 0.026 | [2] -0.097 | [3] -0.059 | [4] 0.008 | [5] 0.016

PSMB1 (UniProt P20618)
inactive: [1] 0.054 | [2] -0.018 | [3] -0.024 | [4] 0.024 | [5] 0.002

PTPA (UniProt Q15257)
inactive: [1] -0.013 | [2] 0.021 | [3] 0.005 | [4] -0.041 | [5] -0.003

PXN (UniProt P49023)
inactive: [1] 0.044 | [2] -0.011 | [3] -0.035 | [4] -0.004 | [5] 0.048

PSMD8 (UniProt P48556)
inactive: [1] 0.014 | [2] -0.07 | [3] -0.01 | [4] -0.001 | [5] 0.071

PSMB5 (UniProt P28074)
inactive: [1] 0.065 | [2] -0.016 | [3] -0.104 | [4] 0.005 | [5] 0.05

PTGFRN (UniProt Q9P2B2)
inactive: [1] -0.014 | [2] 0.036 | [3] 0.043 | [4] 0.04 | [5] -0.006

QPCTL (UniProt Q9NXS2)
inactive: [1] 0.053 | [2] -0.001 | [3] 0.008 | [4] 0.016 | [5] -0.02

PTPMT1 (UniProt Q8WUK0)
inactive: [1] -0.019 | [2] 0.086 | [3] 0.029 | [4] 0.066 | [5] 0.01

PTGS1 isoform 6 (UniProt P23219)
inactive: [1] -0.022 | [2] 0.021 | [3] 0.065 | [4] -0.022 | [5] 0.026

PYCR2 (UniProt Q96C36)
inactive: [1] 0.043 | [2] 0.044 | [3] -0.027 | [4] 0.027 | [5] 0.003

PSMD4 (UniProt P55036)
inactive: [1] 0.025 | [2] -0.058 | [3] -0.096 | [4] 0.007 | [5] -0.005

PSMA1 isoform 2 (UniProt P25786)
inactive: [1] 0.023 | [2] -0.066 | [3] -0.059 | [4] -0.006 | [5] 0.052

Three entries picked at random from the list so far:
PSMD2 (UniProt Q13200)
inactive: [1] 0.026 | [2] -0.097 | [3] -0.059 | [4] 0.008 | [5] 0.016

PVR (UniProt P15151)
inactive: [1] 0.009 | [2] 0.102 | [3] 0.007 | [4] -0.008 | [5] -0.004

PTGS1 isoform 6 (UniProt P23219)
inactive: [1] -0.022 | [2] 0.021 | [3] 0.065 | [4] -0.022 | [5] 0.026

Next part

PSD4 (UniProt Q8NDX1)
inactive: [2] -0.072 | [3] 0.013 | [4] 0.034 | [5] -0.02

PTPRN2 isoform 3 (UniProt Q92932)
inactive: [1] -0.117 | [2] -0.164 | [5] -0.183

PSMB5 isoform 3 (UniProt P28074)
inactive: [1] 0.063 | [3] 0.209 | [4] 0.011

PTRH1 (UniProt Q86Y79)
inactive: [2] -0.078 | [5] -0.004

PRUNE2 isoform 3 (UniProt Q8WUY3)
inactive: [3] -0.113

PSMD4 (UniProt Q5VWC4)
inactive: [1] -0.088 | [2] -0.079 | [3] -0.016 | [5] 0.056

PSIP1 (UniProt V9GYT7)
inactive: [2] -0.045 | [4] 0.121 | [5] 0.146

PTPRS (UniProt Q13332)
inactive: [1] -0.046 | [3] -0.067

PYCR1 (UniProt J3QKT4)
inactive: [1] 0.219 | [3] -0.073 | [4] -0.072

PUM1 (UniProt Q14671)
inactive: [2] 0.116 | [4] 0.059 | [5] -0.094

R3HCC1 (UniProt Q9Y3T6)
inactive: [2] -0.001 | [3] -0.115 | [4] 0.017 | [5] 0.248

PSMD8 (UniProt K7EK21)
inactive: [2] -0.11 | [5] 0.188

PSMD8 (UniProt K7ERW6)
inactive: [3] 0.2 | [4] 0.03

PUS7L (UniProt Q9H0K6)
inactive: [1] -0.05 | [2] 0.03 | [3] 0.013 | [4] 0.005 | [5] 0.032

PSMB2, A0A087WVV1
inactive: [1] -0.104 | [3] 0.054

PSD3 (UniProt Q9NYI0)
inactive: [2] 0.045 | [3] 0.052 | [5] -0.028

PYGO2 (UniProt Q9BRQ0)
inactive: [1] 0.005 | [3] -0.21

PSMC3 (UniProt E9PLG2)
inactive: [1] 0.03 | [3] -0.056 | [4] 0.252

PRXL2B isoform 3 (UniProt Q8TBF2)
inactive: [1] 0.024 | [2] -0.085 | [3] 0.001 | [4] 0.025 | [5] 0

PUSL1 (UniProt Q8N0Z8)
inactive: [2] -0.294 | [4] 0.186 | [5] 0.178

PSMB9 (UniProt P28065)
inactive: [1] 0.182 | [2] 0.138 | [3] 0.179 | [5] -0.203

PSMC1 (UniProt G3V4X1)
inactive: [2] -0.021 | [5] 0.112

PSMA3 (UniProt H0YJ03)
inactive: [2] 0.193 | [3] 0.119 | [4] 0.048 | [5] 0.034
